This is one part of the list. Many values rest on one well or one pass, so single values are uncertain.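 Imaging used 1,536-well plates; nuclei positive for cleaved PARP by antibody were divided by total DNA-stained nuclei to yield the apoptosis fraction. Doses for screening kept most cells viable, and cell lines differ markedly in resting and induced cleaved-PARP levels.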
Experiments:
Assay in all cases: cleaved PARP positive nuclei fraction relative to DMSO control; melanoma cells; higher = more apoptosis
Conditions in all cases: library dose: low library concentration; 72 h
MZ2-MEL = test system: MZ2-MEL
MeWo = test system: MeWo
RPMI7951 = test system: RPMI7951
RVH-421 = test system: RVH-421
SkMel28 = test system: SkMel28
SkMel2 = test system: SkMel2
SkMel30 = test system: SkMel30
SkMel5 = test system: SkMel5
UACC257 = test system: UACC257
UACC62 = test system: UACC62
WM115 = test system: WM115
WM1716 = test system: WM1716
WM1745 = test system: WM1745
WM3526 = test system: WM3526
WM3619 = test system: WM3619
WM451Lu = test system: WM451Lu

Structure (SMILES)	cleaved PARP positive nuclei fraction (MZ2-MEL) [%]	cleaved PARP positive nuclei fraction (MeWo) [%]	cleaved PARP positive nuclei fraction (RPMI7951) [%]	cleaved PARP positive nuclei fraction (RVH-421) [%]	cleaved PARP positive nuclei fraction (SkMel28) [%]	cleaved PARP positive nuclei fraction (SkMel2) [%]	cleaved PARP positive nuclei fraction (SkMel30) [%]	cleaved PARP positive nuclei fraction (SkMel5) [%]	cleaved PARP positive nuclei fraction (UACC257) [%]	cleaved PARP positive nuclei fraction (UACC62) [%]	cleaved PARP positive nuclei fraction (WM115) [%]	cleaved PARP positive nuclei fraction (WM1716) [%]	cleaved PARP positive nuclei fraction (WM1745) [%]	cleaved PARP positive nuclei fraction (WM3526) [%]	cleaved PARP positive nuclei fraction (WM3619) [%]	cleaved PARP positive nuclei fraction (WM451Lu) [%]
Cn1c(=O)n(-c2ccc(C(C)(C)C#N)cc2)c2c3cc(-c4cnc5ccccc5c4)ccc3ncc21 + COC(=O)c1sccc1S(=O)(=O)Nc1ccc(Nc2ccccc2)cc1OC [GSK0660] (first compound 0.004 µM, partner dose 1 µM)	131	43.3	69.6	88.3	223	138	94.7	150	45.4	147	123	242	92.1	86.7	113	41.1
Cn1c(=O)n(-c2ccc(C(C)(C)C#N)cc2)c2c3cc(-c4cnc5ccccc5c4)ccc3ncc21 + O=C(O)C(=O)Nc1sc2c(c1C(=O)O)CCNC2 [TCS401] (first compound 0.004 µM, partner dose 1.66667 µM)	53.7	62.3	65.3	55	94	127	109	138	141	115	59.5	167	94.6	185	77.8	71.8
Cc1cc(Nc2cc(N3CCN(C)CC3)nc(/C=C/c3ccccc3)n2)n[nH]1 + O=C(Nc1ccccc1)c1cc([N+](=O)[O-])ccc1Cl [GW9662] (first compound 0.04 µM, partner dose 2 µM)	133	93.3	114	93.9	105	103	28.6	153	386	107	113	249	86.5	39.8	96	39.8
Cn1c(=O)n(-c2ccc(C(C)(C)C#N)cc2)c2c3cc(-c4cnc5ccccc5c4)ccc3ncc21 + OCCn1cc(-c2cnc3nnn(Cc4ccc5ncccc5c4)c3n2)cn1 [PF04217903] (first compound 0.004 µM, partner dose 1 µM)	240	37.2	172	93.1	139	115	150	39.1	77	120	81.1	178	85.3	38.1	106	130
O=C(O)c1ccc2c(c1)nc(Nc1cccc(Cl)c1)c1ccncc12 + O=C(O)c1ccc(-c2c[nH]c3ncc(-c4ccccc4)cc23)cc1C1CCCC1 [GSK650394] (first compound 0.4 µM, partner dose 0.16 µM)	76.4	70.2	200	71	30.5	111	131	83	110	30.3	53.7	242	104	130	80	40.6
CN1CCN(c2ccc3nc(-c4c(N)c5c(F)cccc5[nH]c4=O)[nH]c3c2)CC1 [Dovitinib] + COc1cc2c(Oc3ccc4[nH]c(C)cc4c3F)ncnc2cc1OCCCN1CCCC1 [cediranib] (first compound 0.1 µM, partner dose 0.4 µM)	192	74	174	75.4	67.1	46.6	181	49.3	151	80.9	166	70.7	119	87.6	87.1	49.3
Cc1cc(Nc2cc(N3CCN(C)CC3)nc(/C=C/c3ccccc3)n2)n[nH]1 + Cn1cncc1[C@@](N)(c1ccc(Cl)cc1)c1ccc2c(c1)c(-c1cccc(Cl)c1)cc(=O)n2C [tipifarnib] (first compound 0.04 µM, partner dose 0.01 µM)	139	45.2	120	168	184	94.4	98.1	84.6	205	101	421	39.3	108	74.3	97.7	95
Nc1nc(F)nc2c1ncn2[C@@H]1O[C@H](CO)[C@@H](O)[C@@H]1O [fludarabine] + COc1ccc(-c2ccc3c(N4CCOCC4)nc(N4C[C@@H](C)O[C@@H](C)C4)nc3n2)cc1CO [KU0063794] (first compound 0.2 µM, partner dose 0.02 µM)	17.3	578	39.8	155	246	1090	1740	134	173	112	155	205	94.6	1640	89.6	761
Nc1ncn([C@H]2C[C@H](O)[C@@H](CO)O2)c(=O)n1 [decitabine] + O=S(=O)(c1ccccc1)N(CC(F)(F)F)c1ccc(C(O)(C(F)(F)F)C(F)(F)F)cc1 [T0901317] (first compound 0.1 µM, partner dose 1.4 µM)	57.8	40.8	175	47	90.2	136	31.2	191	31.7	90.2	109	127	104	84	91.3	141
Nc1ncn([C@H]2C[C@H](O)[C@@H](CO)O2)c(=O)n1 [decitabine] + COc1cc2c(Oc3ccc4[nH]c(C)cc4c3F)ncnc2cc1OCCCN1CCCC1 [cediranib] (first compound 0.1 µM, partner dose 0.4 µM)	89.6	385	104	246	122	89.2	127	123	99.2	80	212	44.6	112	114	82.6	112
CC(C)C[C@H](NC(=O)[C@H](Cc1ccccc1)NC(=O)c1cnccn1)B(O)O [Bortezomib] + O=S(=O)(c1ccccc1)N(CC(F)(F)F)c1ccc(C(O)(C(F)(F)F)C(F)(F)F)cc1 [T0901317] (first compound 0.001 µM, partner dose 1.4 µM)	407	52.1	812	390	207	119	120	80.8	385	248	101	4970	195	90.5	668	203
Cn1c(=O)n(-c2ccc(C(C)(C)C#N)cc2)c2c3cc(-c4cnc5ccccc5c4)ccc3ncc21 + COc1cc(Nc2ncc(F)c(Nc3ccc4c(n3)NC(=O)C(C)(C)O4)n2)cc(OC)c1OC [Tamatinib] (first compound 0.004 µM, partner dose 0.4 µM)	65.8	376	84.1	90.6	160	97.6	77	157	168	488	127	186	129	156	110	72.7
Cc1cc(Nc2cc(N3CCN(C)CC3)nc(/C=C/c3ccccc3)n2)n[nH]1 + Cc1cc([N+](=O)[O-])ccc1NS(=O)(=O)c1cc(Cl)ccc1Cl [FH535] (first compound 0.04 µM, partner dose 1 µM)	106	65.3	71.7	111	204	112	23.7	83.3	84.1	150	130	170	99.8	162	84.4	341
Nc1ccn([C@@H]2O[C@H](CO)[C@@H](O)C2(F)F)c(=O)n1 [gemcitabine] + Oc1nc(-c2ccc(C(F)(F)F)cc2)nc2c1CSCC2 [XAV939] (first compound 0.0004 µM, partner dose 2 µM)	158	79.4	37.8	74.7	81.5	57.3	17.4	41	107	198	58.6	196	300	250	15.1	237
C=C(c1ccc(C(=O)O)cc1)c1cc2c(cc1C)C(C)(C)CCC2(C)C [Bexarotene] + Cn1cncc1[C@@](N)(c1ccc(Cl)cc1)c1ccc2c(c1)c(-c1cccc(Cl)c1)cc(=O)n2C [tipifarnib] (first compound 2 µM, partner dose 0.01 µM)	67	54.2	227	32.1	66.5	128	53.3	133	50.1	81.3	36.9	33.9	92	67.6	131	264
CCCS(=O)(=O)Nc1ccc(F)c(C(=O)c2c[nH]c3ncc(Cl)cc23)c1F + Cn1cncc1[C@@](N)(c1ccc(Cl)cc1)c1ccc2c(c1)c(-c1cccc(Cl)c1)cc(=O)n2C [tipifarnib] (first compound 0.08 µM, partner dose 0.01 µM)	182	98.7	52.7	129	214	174	54.4	71.9	52.8	226	117	117	103	84.5	91.2	72.4

Single entries from the entries so far.
Cc1cc(Nc2cc(N3CCN(C)CC3)nc(/C=C/c3ccccc3)n2)n[nH]1 + Cn1cncc1[C@@](N)(c1ccc(Cl)cc1)c1ccc2c(c1)c(-c1cccc(Cl)c1)cc(=O)n2C [tipifarnib] (first compound 0.04 µM, partner dose 0.01 µM) – cleaved PARP positive nuclei fraction (WM1745) [%]: 108
O=C(O)c1ccc2c(c1)nc(Nc1cccc(Cl)c1)c1ccncc12 + O=C(O)c1ccc(-c2c[nH]c3ncc(-c4ccccc4)cc23)cc1C1CCCC1 [GSK650394] (first compound 0.4 µM, partner dose 0.16 µM) – cleaved PARP positive nuclei fraction (SkMel30) [%]: 131

Source: the supplement of paper PMC4604168 (melanoma cell lines)
